In US20020132974A1, “BETA SHEET FORMING PEPTIDES AND GELS MADE THEREOF” (priority 1995, published 2002):
At least one peptide structure holds a part that was inferred or is arguable (an end, a ring closure or a residue).

How the values were obtained:
[1] = gel and β-tape formation of peptides in solvents; type: physicochemical; conditions: aqueous
Text: Compatibility of the β-sheet surface and the solvent are also essential for gelation as opposed to peptide precipitation out of solution. For example, K24 forms β-tapes with both polar and apolar groups on their surfaces. Thus, they can form gels in solvents with intermediate polarity, corresponding to values of relative dielectric constants, εγ=εr=24-62.
In organic solvents such as ethanol, methanol and 2-chloroethanol we have discovered that the aforementioned peptide sequences self-assemble to provide elongated tapes approximately 8 nm wide and a single molecule in thickness.

[2] = response of peptide gels to chemical switches (pH, salt, surfactant, solvent); type: physicochemical; conditions: for pH at which the aqueous gel transforms to fluid: pH switch
Text: As mentioned, the gels of the invention are susceptible to chemical triggers which result in changes in the properties of the gels so that they switch from, for example, a first fluid state to a gel state or vica versa.
Addition of salt causes the network to contract and phase separate as a more concentrated gel phase. Changing the polarity of the solvent, ie making it more polar (water) or non-polar ( chloroform), preserves the β-sheet structure, but the gel network is destabilised and precipitation of the peptide occurs. In strong hydrogen-bonding donor solvents (like hexafluoroisopropanol), the peptide adopts an α-helical conformation (FIG. 3b) and there is no gelation. Solvents containing arornatic groups cause destabilisation of β-tapes by 20-30% and disruption of the gels. This is believed to be due to competition between intermolecular peptide aromatic side-chain interactions and the aromatic groups of the solvent Acetylation at the N-terminus and amination at the C-temiinus of the 27-residue peptide results in a preference for the a-helical conformation and gels are not formed. It seems that favourable interactions between β-nanotapes and solvent are important for gel stabilisation. By appropriate peptide design, peptides can be produced which will form nanotapes and gels in a variety of solvents, including water. For example, peptides derived from the Drosophila Toll receptor protein, from the Alzheimer amyloid peptide and from desmin filaments and from the β-domain of the leu lysozyme (SER-1). Chemical switches also include changes in pH, for example, the hydrophilic peptide AcNH-Gln-Ala-Thr-Asn-Arg-Asn-Thr-AspGly-Ser-Thr-AspTyr-Gly-Ile-Leu-Gin-Ile-Asn-Ser-Arg-CONH2 (SER-1) forms a gel at neutral and acidic pH, whilst it switches to a neutonial fluid at pH higher than 11.

CC[C@H](C)[C@H](NC(=O)CNC(=O)[C@H](Cc1ccc(O)cc1)NC(=O)[C@H](CC(=O)O)NC(=O)[C@@H](NC(=O)[C@H](CO)NC(=O)CNC(=O)[C@H](CC(=O)O)NC(=O)[C@@H](NC(=O)[C@H](CC(N)=O)NC(=O)[C@H](CCCNC(=N)N)NC(=O)[C@H](CC(N)=O)NC(=O)[C@@H](NC(=O)[C@H](C)NC(=O)[C@H](CCC(N)=O)NC(C)=O)[C@@H](C)O)[C@@H](C)O)[C@@H](C)O)C(=O)N[C@@H](CC(C)C)C(=O)N[C@@H](CCC(N)=O)C(=O)N[C@H](C(=O)N[C@@H](CC(N)=O)C(=O)N[C@@H](CO)C(=O)N[C@@H](CCCNC(=N)N)C(N)=O)[C@@H](C)CC [SER-1, AcNH-Gln-Ala-Thr-Asn-Arg-Asn-Thr-AspGly-Ser-Thr-AspTyr-Gly-Ile-Leu-Gin-Ile-Asn-Ser-Arg-CONH2]
gel formation in water [1]: form aqueous gels
pH at which the aqueous gel transforms to fluid [2]: higher than 11
pH at which the aqueous gel transforms to fluid ([2]; listed as SER1): ≥ 11
state at neutral and acidic pH ([2]; water, neutral and acidic pH): forms a gel
